Values of other authors, collected in patent publication US20060111388A1, “Phenanthroline and derivatives thereof used to lower intraocular pressure in an affected eye” (University of North Texas Health Science Center at Fort …, priority 2004, published 2006).
Some entries share one result that the patent states for a list of compounds.

System: patients
Conditions: topically administered; cited from earlier work

Q: For `CCN[C@H]1C[C@H](C)S(=O)(=O)c2sc(S(N)(=O)=O)cc21` [dorzolamide, Dorzolamide], which “bitter taste, share of patients” value is on record?
A: The value was “up to 25% of patients”.
